# Earlier results, collected in US20240317846A1 (priority 2021, published 2024).
# Values joined by “and” are separate entries in the source; they are usually repeats but may differ in a detail not shown here. Equal entries are not always repeated. “Also recorded” adds a separate entry of the source. For at least one compound, name, drawing or mass did not settle the structure. Marks after values point to notes of the source that are not given here.
# Experiments:
# COVID-19 [1] = conditions: cited from earlier work
# COVID-19 [2] = conditions: cited from earlier work; remark: listed apart in the source
# COVID-19 [3] = conditions: RECOVERY trial; cited from earlier work
# [4] = remdesivir compassionate use, individual patients No. 35-53
SMILES,Improvement in time to recovery (COVID-19 [1]; in vivo) [days],Range of days to discharge (COVID-19 [2]; 2 patients not discharged),Days to Discharge from First Dose (COVID-19 [2]; [4]),Days to Improvement from First Dose (COVID-19 [2]; [4]),Outcome (COVID-19 [2]; [4]),Increased Likelihood of Survival (COVID-19 [3]) [%],Increased Likelihood of Survival Without IMV (COVID-19 [3]) [%],"Survival, Hazard Ratio (COVID-19 [3])","Ventilator-Free Survival, Hazard Ratio (COVID-19 [3])",Survival (COVID-19 [1]; subjects needing respiratory support)
CCC(CC)COC(=O)[C@H](C)N[P@](=O)(OC[C@H]1O[C@@](C#N)(c2ccc3c(N)ncnn23)[C@H](O)[C@@H]1O)Oc1ccccc1 [Remdesivir],5,(6-28)* days,10 days and 17 days and 28 days and 23 days and 26 days and 14 days and 13 days (2×) and 11 days (2×) and 8 days and 16 days (3×) and 7 days and 12 days and 6 days,4 days (2×) and 2 days and 7 days (2×) and 6 days and 3 days and 13 days (2×) and 9 days and 10 days and 8 days and 1 days (3×) and 16 days and 11 days,Discharged; also recorded: Death; also recorded: Hospitalized,,,,,
C[C@@H]1C[C@H]2[C@@H]3CCC4=CC(=O)C=C[C@]4(C)[C@@]3(F)[C@@H](O)C[C@]2(C)[C@@]1(O)C(=O)CO [Dexamethasone],,,,,,16,15,1.16,1.15,improved survival
